Test [1] concerns the target T1, 3x FLAG epitope-tagged MecA (S. mutans) (UniProt Q8DW33).
T1 sequence: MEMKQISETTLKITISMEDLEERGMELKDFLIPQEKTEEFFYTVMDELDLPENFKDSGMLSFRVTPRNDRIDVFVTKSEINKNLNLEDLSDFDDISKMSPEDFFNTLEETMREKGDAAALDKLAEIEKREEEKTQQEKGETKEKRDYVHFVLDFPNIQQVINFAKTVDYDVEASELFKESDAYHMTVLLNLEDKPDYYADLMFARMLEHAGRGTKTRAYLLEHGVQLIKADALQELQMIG
Briefly: co-IP.

Test [2] deals with T1, 3x FLAG epitope-tagged MecA (S. mutans). Briefly: co-IP; 3x FLAG-tagged MecA as bait, 3x HA-tagged candidates; lysates of mid-log S. mutans (cells formaldehyde crosslinked by the methods); anti-FLAG affinity resin; anti-HA western blot, input against output. In general terms: In western blotting, separated proteins are transferred to a membrane and probed.

Results on five molecules are retold here after article PMC10845952.

Results are given in words; binding and its absence hold for the method and conditions named. Binding seen in cells or lysates may run through a third protein. Some binding calls cover weakened binding; strength is not graded here. Tags and fused reporters may be left off the sequences shown.

B1: 3x HA epitope-tagged DnaG (protein, UniProt Q8DUS6 1-592)
chain: MVVDKEKIKEIKDSINIVDVIGEVVSLSRSGRNYLGLCPFHKEKTPSFNVIEDRQFFHCFGCGRSGDVFKFVEDYRNISFLESVQVLAERSGINVTLQDKSQEVKKEHPHQKLFNINGDANKFYQAVLKTTKVGETARQYLYERGLTDELITYFKIGLAPNEYDYLYQAMLKKYDEDTIINSGLFNLSDSNSIYDAFRNRIMFPLTDEFGHIIGFSGRIWTEEDTSKKLAKYKNTRSTIIFNKSYELYHLDKARTAAKKEHELYLMEGFMDVIAAYRAGIPNAVASMGTALTPEHVKHLRKFTKKVILTYDGDKAGQNAIAKSLNLLSNMAVEIVRIPGQMDPDEFIKENSEEELEKLLKQARISSAEFWIEHLKPENIDNLQAEIDYVEKIAKVIAASPSITAQNTYINKVAEFLPDFDYLQVEQAVNNERLQMRSQISEQESANQQVLIDLPVTKQLTALTKAESQLFHRLLHHDYLLNEFRNRAHFKFTTPELQELYQILKTNGEINAYDLSQLSNQLQETYYRVLEENLPEEIAEDEIRQIEDQIDKCLQRQEMRKQSKAIRESSNHGDVDTAVEGLAALIAQKRNME
Regarding B1, the binding entry in test [1] is listed as “binds”.

B2: 3x HA epitope-tagged ThiI (protein, UniProt Q8DUR1 1-405)
chain: MQYSEIMVRYGELSTKGKNRMRFINQLKRNMKHVLSIYPEVSIRADRDRAHIYLNGANYVPVAESLKQIFGIQAFSPSYKVEKSVPALEKAVQAIMVELHHEGLTFKISSKRSDHQFELDSRELNQVLGSAVFAVLPDIKAQMNHPNVNLKVEIREEAAYLSYENIKGAGGLPVGTAGKGMLMLSGGIDSPVAGYLALKRGVNIEAVHFASPPYTSPGALKKAQDLTRKLTKFGGNIQFIEVPFTEIQEEIKAKAPEAYLMTLTRRFMMRIADRIREERSGLVIINGESLGQVASQTLESMQAINAVTTTPVIRPVVTMDKLEIIDIAEKIDTFAISIQPFEDCCTIFAPDRPKTNPKIKNVEQYEARLDIEGLVARAVAGINITEITPQEESQDEVDVLIEDLL
Consider B2, for which the binding entry in test [2] is “binds”.

B3: 3x HA epitope-tagged AlaS (protein, UniProt Q8CWY0 1-872)
chain: MKQLTSAQVRQMWLDFWKSKDHAIEPSANLVPVNDPTLLWINSGVATLKKYFDGSVIPENPRITNAQKAIRTNDIENVGKTARHHTMFEMLGNFSVGDYFRDDAIKWGFELLTSPEWFDLPKDKLYMTYYPDDKDSYNRWIECGVDPSHLIPIEDNFWEIGAGPSGPDTEIFFDRGEDFDPDHIGVRLLAEDIENDRYIEIWNIVLSQFNADPAVPRSEYKELPHKNIDTGAGLERLVAVMQGAKTNFETDLFMPIIREIEKLSGKTYDQDGDNMSFKVIADHIRSLSFAIGDGALPGNEGRGYVLRRLLRRAVMHGRRLGINEPFLYKLVPTVGKIMESYYPEVLEKQDFIEKIVKREEETFARTIDAGSNMLDQLLADLKAADKDTLEGKDIFRLYDTYGFPVELTEELAEDAGFKIDHQGFQAAMKEQQERARANVVKGGSMGMQNETLSNITEKSTFNYEKEALDSSLSVIIADNKRIEAVSEGQVLLVFSETPFYAEMGGQVADHGLIKNDKGDTVARVTDVQKAPNGQALHTVDVLGSLSVGTTYHLEIDHERRNRVMKNHTATHLLHAALHNVIGNHATQAGSLNEVEFLRFDFTHFEAVTPEELRQIEEEVNQQIWKAIPVTTIETDLDTAKEMGAMALFGEKYGKNVRVVSIGDYSVELCGGTHLKNTSEIGIFKIVKEEGIGSGTRRILAVTSKEAFEAYRQEEDILKEIATTLKAPQMNQVANKVASLQDQLHKLQKENAELKEKAAAVAAGDIFKDVKEVNGLRYIASQVEVADAGALRTFADKWKQKDYSDVLVLVASIGKKVNVLVASKSKDIHAGNLIKALAPIVSGRGGGKPDMAMAGGSDASAIKDLIAAVAENL
Turning to B3, in test [2], the binding entry is “binds weakly”.

B4: 3x HA epitope-tagged ClpC (protein, UniProt Q8DS14 1-813)
chain: MTDYSLKMQEVFRLAQFEAARFESSYLESWHVLLAMVEIDSSVAGLSFAEFEADVRFEDYQAAAILAIGKKPKSSSNDIMLLEQSHALKRTLAEAAAISQVTHAKEVGTEHVLFAMLLNPNLLATRILELVGFHAKDDGESIRLLDLRKVIERYAGFSKEDIKAIFEMRKPKKVKNSSSFSDLMKPPSVTGELADFTRDLTELARQGRLEPVIGREQEISRMVQILSRKTKNNPVLVGDAGVGKTALAYGLAQRIVDSAVPFELADMKVLELDMMSVVAGTRFRGDFEERMNQIIADIEADGHIVLFIDELHTIMGSGSGIDSTLDAANILKPALARGSLRTIGATTQEEYQKHIEKDAALSRRFAKVTIEEPSEEEAYQILLGLKKSYETYHHVIISDAAVMAAVKGAHRYLSGKNLPDSAIDLLDEASATVQGLVKKKAPAYLTDLDHALITNDYQLAKRLLKKEKKPLLKKRAEVKEEDILATLSKLSGIPVKKLTQADSKKYLNLERELHKRVIGQDDAVSSISRAIRRNQSGIRVGKRPIGSFMFLGPTGVGKTELAKALAEVLFDDESALIRFDMSEYMEKFAASRLNGAPPGYVGYEEGGELTEKVRNKPYSVLLFDEVEKAHPDIFNILLQVLDDGVLTDSRGRKVDFSNTIIIMTSNLGATALRDDKTVGFGAKSFSQDYKAMESRILEELKKVYRPEFINRIDEKVVFHNLGQEDIRHIVKIMVAPLIAHLADQGITLKFQPSALKHLALAGYDAEMGARPLRRTLQTEVEDKLAELILSGKLASGQTLKIGIQKEKLKFDIV
Take B4: in test [2], the binding result is “binds”.

B5: 3x HA epitope-tagged GltB (protein, UniProt Q8CWY8 1-478)
chain: MADPFGFLKYERKDNPYRPVNERIKDFEELQTTLSVEERQKQAARCMNCGIPFCHEGTFYGGGRAVSGCPNDNLIPEWNDLIYKGDFRRAFERLTRTNPLPEMTGRVCPAPCEKACTEGLNGSGVTIHDNERFIIDNAFEEGWVADSGRPIERTGFKVAVVGSGPAGLSAAWRLNQLGHSVTVFERSDRFGGLLMYGIPNMKLDKKIVQRRIDTMASIGINFVANTEIGRDITAEELLEKFDRVILATGASVPRDLDIPGRDLKGIRFAVDFLTETTKNLLDSDTHELPPLLEGKHVLVIGGGDTGNDCIGTAVRLGAASVRQLEITPQLPEKRLPTNPWPQYPMINRTGYGQEEADFVQQTDLTDYITSTVEFLGENGQVTAVKTIKVGPGFKAIEGTEEVIKADLVLLAMGFTGAEKALFDQFRVECVYDDYSTRNEKVFVAGDARRGPSLVIWGIREGRKTAEKIDQNLRMMVTE
As for B5, the binding entry in test [2] is “binds”.
